The list does not hold the whole screen: it gathers tests that were run many times, whatever their T/C, doses with no T/C, and many T/C values between a quarter and a half above the control. Other doses and runs of a compound stand elsewhere. T/C is the treated group as % of the vehicle group. Some entries give survivors of the animals treated and no T/C: the source holds a T/C of zero for them, seemingly a mark for toxic or unscored doses. Some doses without a T/C left all or most animals alive at the check, yet need not have been tolerated: survival well below the control is almost never listed, so the zero probably covers shortened survival too. Counts of survivors are from the toxicity check (mostly the fifth day) where no day follows; animals may have died later. Schedule codes are those of the source, taken here to give the interval after Q, in days (D) or hours (H), and the number of doses after X. Where survival is the endpoint, the PubChem record calls one and a half times the control and up active, and a quarter to a half above the control has no call in these data; cut-offs in other NCI protocols can differ. Brackets with × count equal records among those shown. Some entries hold several experiments; the results are listed from low to high. Some T/C values carry the count of animals alive at the toxicity check (mostly the fifth day); without a count, all were alive then.
Tested on: L1210 leukemia ip in BDF1 mice, survival T/C
Assay: NCI In Vivo Anticancer Drug Screen. Data for tumor model L1210 Leukemia (intraperitoneal) in B6D2F1 (BDF1) mice
Conditions: T/C endpoint: mean survival time, higher T/C = longer survival
[1] = dose: 50.0 mg/kg/injection, schedule: Q01DX001 (ip), vehicle: carboxymethylcellulose (CMC)
[2] = dose: 200.0 mg/kg/injection, schedule: Q01DX001 (ip), vehicle: saline with Tween-80
[3] = dose: 400.0 mg/kg/injection, schedule: Q01DX001 (ip), vehicle: saline
[4] = dose: 400.0 mg/kg/injection, schedule: Q04DX003 (ip), vehicle: saline with Tween-80
[5] = dose: 400.0 mg/kg/injection, schedule: Q04DX003 (ip), vehicle: Klucel (hydroxypropylcellulose) (HPC)
[6] = dose: 100.0 mg/kg/injection, schedule: Q04DX003 (ip), vehicle: saline with Tween-80
[7] = dose: 200.0 mg/kg/injection, schedule: Q04DX003 (ip), vehicle: saline with Tween-80

CCOC(=O)C(N)Cc1ccc(OC)c(N(CCCl)CCCl)c1 (stereo not given)
T/C (dose: 0.73 mg/kg/injection, schedule: Q01DX009 (ip), vehicle: carboxymethylcellulose (CMC)): 148 % of control
T/C (dose: 2.6 mg/kg/injection, schedule: Q01DX001 (ip), vehicle: carboxymethylcellulose (CMC)): 129 % of control
T/C (dose: 4.0 mg/kg/injection, schedule: Q01DX001 (ip), vehicle: carboxymethylcellulose (CMC), evaluated on day 30): 137 % of control
T/C (dose: 4.0 mg/kg/injection, schedule: Q01DX001 (ip), vehicle: carboxymethylcellulose (CMC), run until all animals had died): 132 % of control
T/C (dose: 6.0 mg/kg/injection, schedule: Q01DX001 (ip), vehicle: carboxymethylcellulose (CMC), evaluated on day 30): 142 % of control
T/C (dose: 6.0 mg/kg/injection, schedule: Q01DX001 (ip), vehicle: carboxymethylcellulose (CMC), run until all animals had died): 130 % of control (2×)
survivor count (dose: 6.0 mg/kg/injection, schedule: Q01DX009 (ip), vehicle: carboxymethylcellulose (CMC)): 2 of 6
T/C (dose: 9.0 mg/kg/injection, schedule: Q01DX001 (ip), vehicle: carboxymethylcellulose (CMC)): 138 % of control
survivor count (dose: 12.5 mg/kg/injection, schedule: Q01DX001 (ip), vehicle: carboxymethylcellulose (CMC)): 0 of 6
survivor count (dose: 25.0 mg/kg/injection, schedule: Q01DX001 (ip), vehicle: carboxymethylcellulose (CMC)): 0 of 6
survivor count [1]: 0 of 6

CC(C)(C)Sc1nc2ccccc2s1
T/C (dose: 100.0 mg/kg/injection, schedule: Q04DX002 (ip), vehicle: saline with Tween-80): 139 % of control

Cc1cc(C(=O)CBr)c(CN2C(=O)c3ccccc3C2=O)c(=O)n1C
survivor count [2]: 1 of 6
survivor count (dose: 400.0 mg/kg/injection, schedule: Q01DX001 (ip), vehicle: saline with Tween-80): 0 of 6

O=S(=O)([O-])[O-].[Cu+2].[OH2+]CC[N-]CC[OH2+].[OH2+]CC[N-]CC[OH2+]
survivor count [1]: 1 of 4
survivor count (dose: 100.0 mg/kg/injection, schedule: Q01DX001 (ip), vehicle: carboxymethylcellulose (CMC)): 0 of 4
survivor count (dose: 200.0 mg/kg/injection, schedule: Q01DX001 (ip), vehicle: carboxymethylcellulose (CMC)): 0 of 4
survivor count (dose: 400.0 mg/kg/injection, schedule: Q01DX001 (ip), vehicle: carboxymethylcellulose (CMC)): 0 of 4

C1=C(c2ccccc2)N=C(c2ccccc2)C2C(c3ccccc3)N2C1c1ccccc1 (stereo not given)
survivor count (dose: 400.0 mg/kg/injection, schedule: Q01DX001 (ip), vehicle: Klucel (hydroxypropylcellulose) (HPC)): 3 of 3

NC(Cc1c[nH]c2ccc(F)cc12)C(=O)O (stereo not given)
survivor count (dose: 400.0 mg/kg/injection, schedule: Q04DX003 (ip), vehicle: other): 5 of 6

O=C(NC(=S)Nc1cccc(O)c1)c1cccc([N+](=O)[O-])c1
survivor count (dose: 400.0 mg/kg/injection, schedule: Q01DX009 (ip), vehicle: saline with Tween-80): 6 of 6

CNC(=O)c1nc(C)c(C)[nH]c1=O
survivor count (dose: 400.0 mg/kg/injection, schedule: Q04DX003 (ip), vehicle: water): 0 of 6

Nc1ccc2c(ccc3cccc[n+]32)c1
survivor count [3]: 1 of 4

C/C(=C\Cl)CO
survivor count [4]: 0 of 6

CCc1ncc(C)n1Cc1ccccc1
survivor count (dose: 50.0 mg/kg/injection, schedule: Q01DX009 (ip), vehicle: saline): 1 of 6
survivor count (dose: 100.0 mg/kg/injection, schedule: Q01DX009 (ip), vehicle: saline): 0 of 6
survivor count (dose: 200.0 mg/kg/injection, schedule: Q01DX009 (ip), vehicle: saline): 0 of 6
survivor count (dose: 400.0 mg/kg/injection, schedule: Q01DX009 (ip), vehicle: saline): 0 of 6

CN(C)N=Nc1nn(C2CCCO2)cc1C(N)=O (stereo not given)
T/C (dose: 50.0 mg/kg/injection, schedule: Q01DX005 (ip), vehicle: saline): 129 % of control
T/C (dose: 100.0 mg/kg/injection, schedule: Q01DX005 (ip), vehicle: saline): 141 % of control
T/C (dose: 200.0 mg/kg/injection, schedule: Q01DX005 (ip), vehicle: saline): 134 and 142 % of control

N=C(N)c1ccc(N=NNc2ccc(C(=N)N)cc2)cc1 (tested in a mixture with another compound)
survivor count [3]: 0 of 6

COc1ccc2c(c1)Cc1cc(NC(=O)N(CCCl)N=O)ccc1-2
T/C (dose: 5.0 mg/kg/injection, schedule: Q01DX009 (ip), vehicle: saline): 132 % of control
T/C (dose: 15.0 mg/kg/injection, schedule: Q01DX001 (ip), vehicle: carboxymethylcellulose (CMC)): 138 % of control
T/C (dose: 30.0 mg/kg/injection, schedule: Q01DX001 (ip), vehicle: carboxymethylcellulose (CMC)): 144 % of control
T/C (dose: 60.0 mg/kg/injection, schedule: Q01DX001 (ip), vehicle: carboxymethylcellulose (CMC)): 130 % of control
T/C (dose: 75.0 mg/kg/injection, schedule: Q01DX009 (ip), vehicle: carboxymethylcellulose (CMC)): 145 % of control
T/C (dose: 90.0 mg/kg/injection, schedule: Q01DX001 (ip), vehicle: other): 128 % of control
T/C (dose: 118.0 mg/kg/injection, schedule: Q01DX009 (ip), vehicle: carboxymethylcellulose (CMC)): 125 % of control [5 of 6 alive]
T/C (dose: 120.0 mg/kg/injection, schedule: Q01DX001 (ip), vehicle: carboxymethylcellulose (CMC)): 141 % of control
survivor count (dose: 122.0 mg/kg/injection, schedule: Q01DX009 (ip), vehicle: other): 2 of 6
T/C (dose: 177.0 mg/kg/injection, schedule: Q01DX001 (ip), vehicle: other): 127 % of control
survivor count (dose: 177.0 mg/kg/injection, schedule: Q01DX009 (ip), vehicle: other): 1 of 6
survivor count (dose: 266.0 mg/kg/injection, schedule: Q01DX009 (ip), vehicle: other): 0 of 6
survivor count (dose: 400.0 mg/kg/injection, schedule: Q01DX001 (ip), vehicle: other): 0 of 6
survivor count (dose: 600.0 mg/kg/injection, schedule: Q01DX001 (ip), vehicle: other): 0 of 6

Br[C](Br)(Br)[Hg][c]1ccccc1
survivor count (dose: 50.0 mg/kg/injection, schedule: Q04DX003 (ip), vehicle: Klucel (hydroxypropylcellulose) (HPC)): 0 of 6
survivor count (dose: 100.0 mg/kg/injection, schedule: Q04DX003 (ip), vehicle: Klucel (hydroxypropylcellulose) (HPC)): 2 of 6
survivor count (dose: 200.0 mg/kg/injection, schedule: Q04DX003 (ip), vehicle: Klucel (hydroxypropylcellulose) (HPC)): 4 of 6
survivor count [5]: 2 of 6

O=C(O)COc1ccccc1-c1ccccc1Cl
survivor count [5]: 0 of 6

CCN(CC)CCN=Cc1ccccc1OC
survivor count [3]: 2 of 4

C=C(C)[C@H]1CN[C@H](C(=O)O)[C@H]1CC(=O)O
survivor count (dose: 75.0 mg/kg/injection, schedule: Q01DX001 (ip), vehicle: saline): 0 of 6
survivor count (dose: 150.0 mg/kg/injection, schedule: Q01DX001 (ip), vehicle: saline): 0 of 6
survivor count (dose: 300.0 mg/kg/injection, schedule: Q01DX001 (ip), vehicle: saline): 1 of 6

N#CC1(O)C(Cl)(Cl)CCCC1(Cl)Cl
survivor count (dose: 50.0 mg/kg/injection, schedule: Q01DX009 (ip), vehicle: saline with Tween-80): 0 of 3
survivor count (dose: 100.0 mg/kg/injection, schedule: Q01DX009 (ip), vehicle: saline with Tween-80): 0 of 3
survivor count (dose: 200.0 mg/kg/injection, schedule: Q01DX009 (ip), vehicle: saline with Tween-80): 0 of 3

CCCCOP(=O)(OCCCC)[O][Pb]([CH2]C)([CH2]C)[CH2]C
survivor count (dose: 12.5 mg/kg/injection, schedule: Q01DX009 (ip), vehicle: saline with Tween-80): 2 of 6
survivor count [6]: 5 of 6
survivor count [7]: 0 of 6
survivor count [4]: 0 of 6

N/N=C(/C=N/N)C(O)CO (stereo not given)
survivor count [2]: 3 of 3

CC1(C)COP(=O)(O)OC1
survivor count [3]: 5 of 6

O=NN(CCCl)C(=O)NC(C(=O)O)C1CCCCC1 (stereo not given)
T/C (dose: 18.0 mg/kg/injection, schedule: Q01DX001 (ip), vehicle: saline with Tween-80): 143 % of control
survivor count [2]: 10 of 10
survivor count (dose: 300.0 mg/kg/injection, schedule: Q01DX001 (ip), vehicle: saline with Tween-80): 9 of 10

N=C(N)c1ccc(-c2[nH]c3cc(C(=N)N)ccc3c2-c2ccccc2)cc1
survivor count [6]: 2 of 4
survivor count [7]: 0 of 4
survivor count [4]: 0 of 4

Source: PubChem BioAssay AID248 (DTP/NCI, 2004)
